Results taken from PubChem BioAssay AID624246 (National Center for Advancing Translational Sciences (NCATS), 2012).
Hit rate of the full screen: of about 370,000 compounds, about 100 (0.027%) were called active. Inconclusive results, whose numbers are uncertain, are shown with a selection of clear calls. Calls come from the whole dose curve; as a rule, active = well fitted inhibition curve with a large enough effect in the polarisation, with a control signal flat; inconclusive = small, poorly fitted or top-dose-only effect, or effect the other way, or a change in a side signal; inactive = no such curve, though single readings can be large or run the other way; the % refers to the polarisation. A potency beside an inconclusive call is a rough fit, not a confirmed value. A note “side channel” means that the fit belongs to a control or component signal, not to the main read-out.

Chains of the proteins cited; added tags and fusions are not shown. Lines headed by an entry give the natural chain unless they say otherwise; changes in a name come on top.
UniProt P11308: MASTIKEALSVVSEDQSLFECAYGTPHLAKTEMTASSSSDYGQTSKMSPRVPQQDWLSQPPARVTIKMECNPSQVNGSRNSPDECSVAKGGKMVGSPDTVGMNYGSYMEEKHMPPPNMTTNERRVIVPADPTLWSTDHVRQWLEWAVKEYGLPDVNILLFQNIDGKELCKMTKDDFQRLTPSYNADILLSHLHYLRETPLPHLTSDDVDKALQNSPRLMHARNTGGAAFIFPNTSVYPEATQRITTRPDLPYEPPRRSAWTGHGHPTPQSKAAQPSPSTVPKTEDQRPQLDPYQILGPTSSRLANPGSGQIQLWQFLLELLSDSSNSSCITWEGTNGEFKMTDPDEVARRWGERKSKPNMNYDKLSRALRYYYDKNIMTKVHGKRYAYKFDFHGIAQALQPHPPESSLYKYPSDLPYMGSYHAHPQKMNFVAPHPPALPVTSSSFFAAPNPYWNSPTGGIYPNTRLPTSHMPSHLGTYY

These compounds were tested against Transcriptional regulator ERG (Homo sapiens) (UniProt P11308) (assay: qHTS for Small Molecule Inhibitors of the ERG Ets/DNA interaction). Details: fluorescence polarization, His-ERG Ets domain / labelled DNA; series mostly up to 76.9 µM.
Procedure, shortened: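 His-tagged ERG Ets domain (1 uM in the protein solution; 300mM KCl, 50mM Tris-HCl, 1mM EDTA, 1mM DTT, pH 7.5) received compound, then a probe mix of 5 nM fluorescein-DNA and 100nM Texas-615-DNA. Fluorescence polarization was read for both dyes.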
Potency is the fitted concentration of half-maximal effect.

SMILES	Potency
CC(NC(=O)c1nn(C)c2c1CS(=O)(=O)c1ccccc1-2)c1ccccc1 (stereo not given)	inconclusive: 31.6 µM [inhibitor, single point]
COC(=O)C(C)Sc1ncnc2c1c(-c1ccccc1)cn2-c1ccc(F)cc1 (stereo not given)	inactive
O=C(NCc1ccc(F)cc1)c1ccccc1OCc1ccccc1	inconclusive: 7.94 µM [quencher, side channel, partial curve, poor fit]
N#Cc1ccc(CN2CCN(C(=O)CN3C(=O)NC4(CCCC4)C3=O)CC2)cc1	inconclusive: 44.7 µM [inhibitor, single point]
O=C1N=NC(=O)N1c1ccccc1	inconclusive: 11.2 µM [inhibitor, single point]
Cc1ccc(NC(=S)Nc2cccc3ccccc23)cc1	inactive
COc1cc(NC(=O)CCNC(=O)Cn2cnc3sc4c(c3c2=O)CCCC4)cc(OC)c1OC	inconclusive: 31.6 µM [inhibitor, single point]
CCCC(=O)N1CC(=O)Nc2ccc(Cl)cc2C1c1ccccc1 (stereo not given)	inconclusive: 5.62 µM [quencher, side channel, partial curve, poor fit]
CCCCC(=O)Nc1ccc(C2C(=O)c3ccccc3C2=O)cc1	inactive
CCC(=O)NC(=S)Nc1ccc(NC(=O)c2ccc(OC)cc2)cc1	inactive
CCOC(=O)c1c(C)sc(-c2c(-c3cc(C)ccc3C)[nH]c3c2c(=O)n(C)c(=O)n3C)c1O	inconclusive: 11.2 µM [fluorescent, side channel, partial curve]
Cc1cc2[nH]c3c(c[n+](C)c4ccccc34)c2cc1C	inconclusive: 31.6 µM [inhibitor, partial curve, poor fit]
Cc1ccccc1S(=O)(=O)N(CC(O)CN1C(=O)NC(C)(C)C1=O)c1ccccc1 (stereo not given)	inconclusive: 22.4 µM [inhibitor, partial curve, poor fit]
Cc1cccn2c(=O)c3cc(S(=O)(=O)c4ccc(Br)cc4)c(=N)n(C4CCCCC4)c3nc12	inactive
O=C(NCc1cccc(F)c1)C1CCN(c2nc3ccccc3nc2C(F)(F)F)CC1	inactive
Cc1[nH]ccc2c1[nH]c1cc(=O)ccc12	inconclusive: 44.7 µM [inhibitor, single point]
CCc1sc(C(=O)Nc2cccnc2)cc1Br	inactive
Cc1ccc(/C=C/C(=O)NCc2ccncc2)cc1	inconclusive: 11.2 µM [inhibitor, single point]
COc1ccc(-c2ccc(SCC(=O)NCc3ccc4c(c3)OCO4)nn2)cc1OC	inconclusive: 28.2 µM [inhibitor, partial curve, poor fit]
N/C(=N\N=C\c1ccc(O)c(O)c1)c1nonc1N	inconclusive: 11.2 µM [inhibitor, single point]
O=C(O)c1ccccc1C1=Nc2ccc(O)cc2Oc2cc(O)ccc21	inconclusive: 39.8 µM [inhibitor, partial curve, poor fit]
CCOc1ccccc1C(=O)NCC(c1ccc(N(C)C)cc1)N1CCc2ccccc21 (stereo not given)	inactive

SMILES	Potency
CCc1ccc2c(c1)c(=O)c(C(=O)c1ccc(C)cc1)cn2CC(=O)Nc1ccccc1C	inconclusive: 100 µM [inhibitor, single point]
O=C1CC(Cc2ccccc2)C(=O)N1c1ccc(Cl)cn1 (stereo not given)	inconclusive: 56.2 µM [inhibitor, partial curve, poor fit]
O=C1N/C(=N/O)S/C1=C/c1cccc([N+](=O)[O-])c1	inactive
O=C(COC(=O)/C=C/c1cccs1)Nc1ccc(F)cc1	inconclusive: 5.62 µM [inhibitor, partial curve, poor fit]
CCCCCC(=O)Nc1ccc(N2CCN(CC)CC2)c(Cl)c1	inactive
CCN(Cc1ccccc1)C(=O)CN1C(=O)CSc2ccc(S(=O)(=O)N(CC)CC)cc21	inactive
S=c1[nH]nc(-c2ccco2)n1/N=C/C=C/c1ccco1	inactive
COc1ccc(OC)c2[nH]c(=O)c(CCNC(C)=O)cc12	inconclusive: 11.2 µM [inhibitor, single point]
Cc1cc(C)cc(OCC(=O)OCC(=O)NCc2cccs2)c1	inactive
Cc1cc(C)cc(C(=O)Nc2nnc(SCC(=O)NCC3CCCO3)s2)c1 (stereo not given)	inconclusive: 11.2 µM [inhibitor, single point]
CCN1C(=O)C(CC(=O)NCCc2ccccc2)N(NC(=O)c2cccnc2)C1=S (stereo not given)	inconclusive: 0.794 µM [inhibitor, full curve, poor fit]
COc1ccc(CCN(Cc2cccs2)S(=O)(=O)c2ccc(-n3cnnn3)c(OC)c2)cc1OC	inconclusive: 63.1 µM [inhibitor, single point]
N#C/C(=C/c1ccc(-c2ccc(S(N)(=O)=O)cc2)o1)c1nc2ccccc2s1	inconclusive: 25.1 µM [inhibitor, single point]
Cc1occc1C(=O)NNS(=O)(=O)c1ccc(Cl)cc1	inconclusive: 35.5 µM [inhibitor, single point]
O=C1COc2ccc(S(=O)(=O)Nc3ccc4c(c3)OCO4)cc2N1	inconclusive: 11.2 µM [inhibitor, single point]
COc1ccc(N(CCC(=O)Nc2ccccc2F)S(=O)(=O)c2ccc(C)cc2C)cc1	inconclusive: 8.91 µM [inhibitor, single point]
Cc1c(Cl)cccc1NC(=O)COCc1cc(-c2ccc3c(c2)OCO3)on1	inactive
CC1=C(C)CS(=O)N(c2ccc(S(N)(=O)=O)cc2)C1 (stereo not given)	inactive
COc1ccc(N(C(=O)c2ccc(OC)c(OC)c2)S(=O)(=O)c2ccc(Cl)cc2)cc1	inconclusive: 31.6 µM [fluorescent, side channel, partial curve, poor fit]
Cc1ccc(/C=C2\Oc3cc(OC(=O)N4CCOCC4)ccc3C2=O)cc1	inactive
Cc1cc(C)c(C#N)c(SCc2cn3c(C)cccc3n2)n1	inactive
C/C(CCc1ccc2c(c1)OCO2)=N\NC(=O)c1ccccc1	inconclusive: 8.91 µM [quencher, side channel, partial curve, poor fit]

SMILES	Potency
S=c1[nH]nc(Cc2n[nH]c(=S)n2-c2ccccc2)n1-c1ccccc1	inconclusive: 14.1 µM [inhibitor, partial curve, poor fit]
CS(=O)(=O)c1nc(-c2ccc(F)cc2)cc(C(F)(F)F)n1	inactive
CC(=O)OCC(=O)[C@@]1(O)CC[C@H]2[C@@H]3CCC4=CC(=O)CC[C@]4(C)[C@H]3[C@@H](O)C[C@@]21C	inconclusive: 5.62 µM [inhibitor, partial curve, poor fit]
COc1ccc(CC(=O)N(C)CC(=O)Nc2ccccc2Cl)cc1S(=O)(=O)N1CCOCC1	inconclusive: 3.55 µM [inhibitor, partial curve, poor fit]
Cc1cccc(N2CC(O)(c3cccs3)[N+]3=C2CCCC3)c1C (stereo not given)	inconclusive: 0.891 µM [quencher, side channel, full curve, poor fit]
Cc1cccc(N(C(=O)c2csnn2)C(C(=O)NC2CCCCC2)c2ccccn2)c1C (stereo not given)	inconclusive: 50.1 µM [inhibitor, single point]
O=c1[nH]c2ccccc2nc1/C=C(\O)C1CC1	inactive
CCn1cc(S(=O)(=O)NCc2ccc(OC)cc2)cn1	inconclusive: 31.6 µM [inhibitor, single point]
CN1/C(=C\P(=O)(N(C)C)N(C)C)C(C)(C)c2ccccc21	inconclusive: 35.5 µM [fluorescent, side channel, single point]
CCOc1ccccc1N1CCN(C(=O)c2cc(S(=O)(=O)N(C)C)ccc2N2CCCC2)CC1	inconclusive: 11.2 µM [inhibitor, single point]
COc1cccc(CNC(=O)c2ccc(C)c(NC3=NC4CS(=O)(=O)CC4S3)c2)c1 (stereo not given)	inactive
Cc1ccc(NC(=O)CSc2c3c(nc4ccccc24)CCCC3)cc1F	inconclusive: 0.794 µM [quencher, side channel, full curve, poor fit]
CCOC(=O)COn1c(=O)c(-c2ccc(OC)cc2)[n+]([O-])c2ccccc21	inconclusive: 35.5 µM [inhibitor, partial curve, poor fit]
CC(=O)NN1C(=O)/C(=C/c2ccc(Br)o2)SC1=S	inconclusive: 50.1 µM [fluorescent, side channel, single point]
CCOC(=O)c1c(C)nn(-c2ncccc2NC(=O)CCC(=O)O)c1C	inconclusive: 6.31 µM [quencher, side channel, single point]
CSc1nc(-c2ccccc2)cc(C)c1C#N	inconclusive: 3.16 µM [quencher, side channel, partial curve, poor fit]
CCCC(NC(=O)C(C)Sc1nnnn1C1CC1)c1ccccc1 (stereo not given)	inconclusive: 3.16 µM [inhibitor, partial curve, poor fit]
Cc1nnc(SCC(=O)NNC(=O)c2ccccc2)n1-c1ccccc1	inconclusive: 2 µM [inhibitor, partial curve, poor fit]
Cc1ccc(NC(=O)N(Cc2c[nH]c3ccccc23)C2CCCCCC2)cc1C	inconclusive: 31.6 µM [quencher, side channel, single point]
BrC(=C\c1ccccc1)/C=N/Nc1nc(N2CCOCC2)nc(N2CCOCC2)n1	inactive
CCC1Oc2ccccc2N(CC(=O)NC2CC2)C1=O (stereo not given)	inconclusive: 50.1 µM [inhibitor, single point]

Taken from above:
Potency, `N/C(=N\N=C\c1ccc(O)c(O)c1)c1nonc1N` reads inconclusive: 11.2 µM [inhibitor, single point]
Potency, `COc1cccc(CNC(=O)c2ccc(C)c(NC3=NC4CS(=O)(=O)CC4S3)c2)c1` (stereo not given) reads inactive
Potency, `Cc1occc1C(=O)NNS(=O)(=O)c1ccc(Cl)cc1` reads inconclusive: 35.5 µM [inhibitor, single point]
Potency, `CCOc1ccccc1N1CCN(C(=O)c2cc(S(=O)(=O)N(C)C)ccc2N2CCCC2)CC1` reads inconclusive: 11.2 µM [inhibitor, single point]
Potency, `CCOc1ccccc1C(=O)NCC(c1ccc(N(C)C)cc1)N1CCc2ccccc21` (stereo not given) reads inactive
